Results: US5298414A (priority 1989, dated 1994)

System: washed cells of P. putida MlO
Assay type: cell-based, Pseudomonas putida MlO
Settings: P. putida MlO grown at the expense of heroin, HPLC

For `CN1CC[C@]23c4c5ccc(O)c4O[C@H]2[C@@H](O)C=C[C@H]3[C@H]1C5` [morphine], the “metabolism by washed cells grown on heroin” value was “readily metabolised”.
